No constants are given. Whether binding was seen depends on the method and setting. In cells and extracts the contact can be indirect. Some entries that bind do so weakly or less than the wild type. Sequences can lack the tags named with a protein.

Sequences of proteins named here, by UniProt entry; tags and fusion partners are left off.
UniProt P14635: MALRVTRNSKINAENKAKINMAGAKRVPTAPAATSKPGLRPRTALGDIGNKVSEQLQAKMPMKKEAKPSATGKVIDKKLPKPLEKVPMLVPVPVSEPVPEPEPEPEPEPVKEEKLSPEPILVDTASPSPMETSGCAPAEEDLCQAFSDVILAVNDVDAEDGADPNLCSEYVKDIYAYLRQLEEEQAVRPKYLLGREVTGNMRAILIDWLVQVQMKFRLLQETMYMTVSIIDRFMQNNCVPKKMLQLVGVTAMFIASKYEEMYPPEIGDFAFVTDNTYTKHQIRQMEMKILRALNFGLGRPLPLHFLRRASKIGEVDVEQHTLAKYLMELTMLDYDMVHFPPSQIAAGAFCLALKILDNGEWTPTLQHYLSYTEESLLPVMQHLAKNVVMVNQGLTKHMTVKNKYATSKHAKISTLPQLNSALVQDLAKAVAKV

We go through one substance from PMC3542011.

The target in the experiment is T1, Mitofusin 1 (human (endogenous in HeLa)) (UniProt Q8IWA4).
T1 sequence: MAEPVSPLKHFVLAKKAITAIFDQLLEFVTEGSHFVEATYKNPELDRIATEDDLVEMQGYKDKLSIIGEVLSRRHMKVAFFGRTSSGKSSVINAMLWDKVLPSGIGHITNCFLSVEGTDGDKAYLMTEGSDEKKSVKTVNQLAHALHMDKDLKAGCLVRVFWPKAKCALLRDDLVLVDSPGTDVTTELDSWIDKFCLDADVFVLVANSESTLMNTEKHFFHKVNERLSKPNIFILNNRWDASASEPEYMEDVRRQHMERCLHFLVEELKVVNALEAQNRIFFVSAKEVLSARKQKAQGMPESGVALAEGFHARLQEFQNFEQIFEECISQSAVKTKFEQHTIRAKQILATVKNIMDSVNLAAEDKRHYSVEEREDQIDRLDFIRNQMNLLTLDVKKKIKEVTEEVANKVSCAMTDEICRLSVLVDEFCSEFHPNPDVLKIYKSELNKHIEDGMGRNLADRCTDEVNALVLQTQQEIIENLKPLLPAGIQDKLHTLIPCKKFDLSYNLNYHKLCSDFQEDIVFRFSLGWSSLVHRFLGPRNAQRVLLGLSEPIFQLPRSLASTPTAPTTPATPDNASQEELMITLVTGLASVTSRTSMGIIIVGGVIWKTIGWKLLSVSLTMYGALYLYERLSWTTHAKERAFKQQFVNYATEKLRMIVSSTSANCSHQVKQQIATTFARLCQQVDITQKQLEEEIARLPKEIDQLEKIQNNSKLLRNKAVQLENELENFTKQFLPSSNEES
Briefly: co-IP; HeLa lysates immunoprecipitated with anti-Mfn1 antibody, as described for the cyclin B1 immunoprecipitates; immunoblot; G2/M cells obtained by taxol treatment for 12 h.

As to cyclin B1 (from UniProt P14635 1-433), the binding entry is listed as “binds”.
